The series addresses T1, TTHA0973 (PaaR, TetR family) (Thermus thermophilus HB8) (UniProt Q5SJN5).
T1 sequence (looked up, limits assumed): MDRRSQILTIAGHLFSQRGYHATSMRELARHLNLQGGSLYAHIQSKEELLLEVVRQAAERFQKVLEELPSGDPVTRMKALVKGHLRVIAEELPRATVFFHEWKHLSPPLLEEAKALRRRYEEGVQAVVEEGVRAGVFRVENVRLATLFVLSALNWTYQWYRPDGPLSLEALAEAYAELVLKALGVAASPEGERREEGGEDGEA
The series can be described thus: BLI. The note with it: up to 300 nM protein; BLI with 11, 33, 100, 300 nM TTHA0973; temperature not given (cited protocol); recombinant protein; label: biotin-dT at 5' of strand 2; letters put together from the description.

Construct, isoform or probe ends are uncertain for at least one entry. Negatives hold for the conditions tested. Tags and fusion partners may be left off the protein sequences shown.

As for “CTAGGAATTCGTGCAGAGGTGAATCGTCATAGAATTCGTTACCATCCCTCCAGAAGCTTGGACA (double strand) [ST2_REPSAis control]”, the binding result was “no binding”.

Source of the values: PMC6651687.
